Results deposited as PubChem BioAssay AID1259308 (NCATS, 2017).

- Test: 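Genes whose loss raises luciferase production in HEK293 cells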 (primary screen)
- System: human HEK293 embryonic kidney cells stably expressing firefly luciferase (HEK-CMV-Luc2-Hygro)
- Reagent: single siRNA against human genes, 0.8 pmol siRNA per well
- Timing: 72 h
- Measured: 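Luciferase light (ONE-Glo) measured on one replicate plate set and viability (CellTiter-Glo) on the other, scaled to a negative control siRNA, with robust z-scores and luciferase per cell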
- Scale: total luciferase, z-score and total luciferase, % of control: higher = more reporter protein produced; luciferase per cell, z-score: higher = more reporter output per viable cell; viable cells, % of control: higher = more viable cells
- Call rule: 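Active when the median/MAD z-score for overall luciferase is greater than 3; a gene was taken forward for validation with new siRNAs if at least two of its three siRNAs passed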
- Calls: active = raised luciferase; inactive = no rise
Here is a random part of about 59,000 reagents. About 1,510 of all reagents (2.6%) count as active. 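Calls use total luciferase alone and ignore viability, so some active siRNAs may act by altering cell number.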 A number with no mark means an inactive call. The numbers tell different reagents against one gene apart.

no.	target	reagent no.	total luciferase, z-score	total luciferase, % of control	luciferase per cell, z-score	viable cells, % of control
1	DDX60	1	-0.193	78	-0.4	96.9
2	DDX60	2	-1.15	59	-1.3	92.7
3	DDX60	3	0.0109	82.1	-0.00628	91.9
4	ARID2	1	0.0837	83.6	0.595	79.8
5	ARID2	2	-0.503	71.9	0.166	76.9
6	ARID2	3	-0.41	73.7	-0.392	91.3
7	STK11	1	-0.252	76.9	0.0161	85.5
8	STK11	2	1.55	113	0.446	112
9	STK11	3	4.28 (active)	167	1.75	118
10	CCND1	1	-1.57	50.6	-1.55	84.9
11	CCND1	2	0.241	86.7	-0.0526	98.2
12	CCND1	3	0.954	101	0.767	92.1
13	SRM	1	2.28	127	1.57	94
14	SRM	2	-0.71	67.8	-0.961	97.5
15	SRM	3	-1.39	54.3	-1.54	90.9
16	GTPBP6	1	0.721	96.2	0.739	88.5
17	GTPBP6	2	0.857	98.9	1.71	70.4
18	GTPBP6	3	-1.06	60.9	-0.114	70.1
19	LOC729291	1	0.951	101	0.429	101
20	LOC729291	2	-0.00337	81.8	-0.462	103
21	LOC729291	3	-0.536	71.2	-0.718	96.1
22	ZNF438	1	-1.35	55	-1.02	80.4
23	ZNF438	2	0.247	86.8	-0.214	103
24	ZNF438	3	-1.66	48.9	-2.61	109
25	NBN	1	0.411	90.1	-0.404	112
26	NBN	2	0.687	95.6	0.0945	104
27	NBN	3	-0.877	64.5	-1.17	97.9
28	RHOBTB2	1	0.31	88	0.374	89.2
29	RHOBTB2	2	0.123	84.3	-0.459	106
30	RHOBTB2	3	2.87	139	3.46	62.5
31	EIF4E3	1	1.69	116	1.43	88.6
32	EIF4E3	2	1.26	107	0.579	103
33	EIF4E3	3	-0.863	64.7	-0.93	92.4
34	LOC285191	1	-0.162	78.7	-0.215	93
35	LOC285191	2	0.0835	83.5	0.806	75.5
36	LOC285191	3	0.0643	83.2	1	71.3
37	DEFB106A	1	-0.851	65	-0.863	91.1
38	DEFB106A	2	-2.94	23.4	-2.79	54.5
39	DEFB106A	3	-0.519	71.6	0.12	77.5
40	C11orf24	1	1.71	116	0.896	102
41	C11orf24	2	5.48 (active)	191	4.02	74.1
42	C11orf24	3	0.677	95.4	0.582	91.4
43	GP2	1	-0.0974	79.9	0.519	77.9
44	GP2	2	-0.126	79.4	0.54	77
45	GP2	3	-0.121	79.5	-0.267	95.3
46	SMARCD3	1	2.13	124	0.808	112
47	SMARCD3	2	-0.124	79.4	-0.233	94.4
48	SMARCD3	3	0.533	92.5	-0.109	106
49	C11orf96	1	1.41	110	1.91	74.3
50	C11orf96	2	-1.11	59.8	-1.29	93.9
51	C11orf96	3	-1.35	55.1	-0.638	72.9
52	CALR3	1	-2.17	38.7	-1.04	56.8
53	CALR3	2	-0.0422	81	1.94	54.4
54	CALR3	3	-0.402	73.9	-0.816	102
55	NALF1	1	0.201	85.9	0.136	92.6
56	NALF1	2	0.149	84.9	0.127	91.7
57	NALF1	3	0.811	98	0.22	103

Ordered by “luciferase per cell, z-score” (ascending): 5 of the entries above.
target	reagent no.	total luciferase, z-score	total luciferase, % of control	luciferase per cell, z-score	viable cells, % of control
DDX60	2	-1.15	59	-1.3	92.7
DDX60	1	-0.193	78	-0.4	96.9
DDX60	3	0.0109	82.1	-0.00628	91.9
ARID2	2	-0.503	71.9	0.166	76.9
ARID2	1	0.0837	83.6	0.595	79.8
